No constants are given. Whether binding was seen depends on the method and setting. In cells and extracts the contact can be indirect. Binding calls can cover weak binding; strength is not graded here.

The labels stand for the following.
B1: sensor protein Lrp (protein, UniProt P0ACJ0 1-164)
chain: MVDSKKRPGKDLDRIDRNILNELQKDGRISNVELSKRVGLSPTPCLERVRRLERQGFIQGYTALLNPHYLDASLLVFVEITLNRGAPDVFEQFNTAVQKLEEIQECHLVSGDFDYLLKTRVPDMSAYRKLLGETLLRLPGVNDTRTYVVMEEVKQSNRLVIKTR
B2: HslJ (protein, UniProt P52644 1-140)
chain: MKKVAAFVALSLLMAGCVSNDKIAVTPEQLQHHRFVLESVNGKPVTSDKNPPEISFGEKMMISGSMCNRFSGEGKLSNGELTAKGLAMTRMMCANPQLNELDNTISEMLKEGAQVDLTANQLTLATAKQTLTYKLADLMN
B3: HslR (protein, UniProt P0ACG8 1-133)
chain: MKEKPAVEVRLDKWLWAARFYKTRALAREMIEGGKVHYNGQRSKPSKIVELNATLTLRQGNDERTVIVKAITEQRRPASEAALLYEETAESVEKREKMALARKLNALTMPHPDRRPDKKERRDLLRFKHGDSE
B4: small heat shock protein IpbB (protein, UniProt P0C058 1-142)
chain: MRNFDLSPLMRQWIGFDKLANALQNAGESQSFPPYNIEKSDDNHYRITLALAGFRQEDLEIQLEGTRLSVKGTPEQPKEEKKWLHQGLMNQPFSLSFTLAENMEVSGATFVNGLLHIDLIRNEPEPIAAQRIAISERPALNS
B5: small heat shock protein IpbA (protein, UniProt P0C054 1-137)
chain: MRNFDLSPLYRSAIGFDRLFNHLENNQSQSNGGYPPYNVELVDENHYRIAIAVAGFAESELEITAQDNLLVVKGAHADEQKERTYLYQGIAERNFERKFQLAENIHVRGANLVNGLLYIDLERVIPEAKKPRRIEIN
B6: membrane protein YajC (protein, UniProt P0ADZ7 1-110)
chain: MSFFISDAVAATGAPAQGSPMSLILMLVVFGLIFYFMILRPQQKRTKEHKKLMDSIAKGDEVLTNGGLVGRVTKVAENGYIAIALNDTTEVVIKRDFVAAVLPKGTMKAL

The assay concerns the target hexa-histidine-tag fused TseL^PA (Pseudomonas aeruginosa LYSZa7). In words: pull-down; hexa-histidine-tag fused TseL^PA as bait to find potential toxin targets; 48 proteins pulled out (Table S4); sample and way of identification not told in the text shown.
Turning to B1, the binding entry is reported as “binds”. Then B2, with “binds”; and B3, with “binds”.

For the molecule B4, the binding entry is recorded as “binds”. Then B5, with “binds”; and B6, with “binds”.

(Values after PMC9927574.)
